Ten molecules from doi:10.1101/2020.03.15.992727 can be followed below.

Amino acid sequences for entries named in this document (tags omitted).
UniProt P46459: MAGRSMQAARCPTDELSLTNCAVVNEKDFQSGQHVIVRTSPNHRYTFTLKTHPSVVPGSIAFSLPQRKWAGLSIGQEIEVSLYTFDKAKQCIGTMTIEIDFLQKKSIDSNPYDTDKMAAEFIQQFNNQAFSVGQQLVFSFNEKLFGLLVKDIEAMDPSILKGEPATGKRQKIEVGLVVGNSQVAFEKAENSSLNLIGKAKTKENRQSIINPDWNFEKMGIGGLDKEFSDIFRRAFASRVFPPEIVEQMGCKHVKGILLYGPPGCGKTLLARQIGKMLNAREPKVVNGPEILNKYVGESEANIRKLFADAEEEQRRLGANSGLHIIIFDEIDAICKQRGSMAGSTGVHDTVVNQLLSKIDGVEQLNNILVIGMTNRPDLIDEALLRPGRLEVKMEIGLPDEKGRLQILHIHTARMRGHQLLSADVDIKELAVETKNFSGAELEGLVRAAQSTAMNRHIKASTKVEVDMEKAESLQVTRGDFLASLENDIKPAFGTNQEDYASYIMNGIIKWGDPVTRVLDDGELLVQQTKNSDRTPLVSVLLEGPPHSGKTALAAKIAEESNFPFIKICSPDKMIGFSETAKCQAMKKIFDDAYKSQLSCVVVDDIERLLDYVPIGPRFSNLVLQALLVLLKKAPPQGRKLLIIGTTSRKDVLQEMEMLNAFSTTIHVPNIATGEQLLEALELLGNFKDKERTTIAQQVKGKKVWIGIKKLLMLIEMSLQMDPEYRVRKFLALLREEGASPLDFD
UniProt A2RRP1: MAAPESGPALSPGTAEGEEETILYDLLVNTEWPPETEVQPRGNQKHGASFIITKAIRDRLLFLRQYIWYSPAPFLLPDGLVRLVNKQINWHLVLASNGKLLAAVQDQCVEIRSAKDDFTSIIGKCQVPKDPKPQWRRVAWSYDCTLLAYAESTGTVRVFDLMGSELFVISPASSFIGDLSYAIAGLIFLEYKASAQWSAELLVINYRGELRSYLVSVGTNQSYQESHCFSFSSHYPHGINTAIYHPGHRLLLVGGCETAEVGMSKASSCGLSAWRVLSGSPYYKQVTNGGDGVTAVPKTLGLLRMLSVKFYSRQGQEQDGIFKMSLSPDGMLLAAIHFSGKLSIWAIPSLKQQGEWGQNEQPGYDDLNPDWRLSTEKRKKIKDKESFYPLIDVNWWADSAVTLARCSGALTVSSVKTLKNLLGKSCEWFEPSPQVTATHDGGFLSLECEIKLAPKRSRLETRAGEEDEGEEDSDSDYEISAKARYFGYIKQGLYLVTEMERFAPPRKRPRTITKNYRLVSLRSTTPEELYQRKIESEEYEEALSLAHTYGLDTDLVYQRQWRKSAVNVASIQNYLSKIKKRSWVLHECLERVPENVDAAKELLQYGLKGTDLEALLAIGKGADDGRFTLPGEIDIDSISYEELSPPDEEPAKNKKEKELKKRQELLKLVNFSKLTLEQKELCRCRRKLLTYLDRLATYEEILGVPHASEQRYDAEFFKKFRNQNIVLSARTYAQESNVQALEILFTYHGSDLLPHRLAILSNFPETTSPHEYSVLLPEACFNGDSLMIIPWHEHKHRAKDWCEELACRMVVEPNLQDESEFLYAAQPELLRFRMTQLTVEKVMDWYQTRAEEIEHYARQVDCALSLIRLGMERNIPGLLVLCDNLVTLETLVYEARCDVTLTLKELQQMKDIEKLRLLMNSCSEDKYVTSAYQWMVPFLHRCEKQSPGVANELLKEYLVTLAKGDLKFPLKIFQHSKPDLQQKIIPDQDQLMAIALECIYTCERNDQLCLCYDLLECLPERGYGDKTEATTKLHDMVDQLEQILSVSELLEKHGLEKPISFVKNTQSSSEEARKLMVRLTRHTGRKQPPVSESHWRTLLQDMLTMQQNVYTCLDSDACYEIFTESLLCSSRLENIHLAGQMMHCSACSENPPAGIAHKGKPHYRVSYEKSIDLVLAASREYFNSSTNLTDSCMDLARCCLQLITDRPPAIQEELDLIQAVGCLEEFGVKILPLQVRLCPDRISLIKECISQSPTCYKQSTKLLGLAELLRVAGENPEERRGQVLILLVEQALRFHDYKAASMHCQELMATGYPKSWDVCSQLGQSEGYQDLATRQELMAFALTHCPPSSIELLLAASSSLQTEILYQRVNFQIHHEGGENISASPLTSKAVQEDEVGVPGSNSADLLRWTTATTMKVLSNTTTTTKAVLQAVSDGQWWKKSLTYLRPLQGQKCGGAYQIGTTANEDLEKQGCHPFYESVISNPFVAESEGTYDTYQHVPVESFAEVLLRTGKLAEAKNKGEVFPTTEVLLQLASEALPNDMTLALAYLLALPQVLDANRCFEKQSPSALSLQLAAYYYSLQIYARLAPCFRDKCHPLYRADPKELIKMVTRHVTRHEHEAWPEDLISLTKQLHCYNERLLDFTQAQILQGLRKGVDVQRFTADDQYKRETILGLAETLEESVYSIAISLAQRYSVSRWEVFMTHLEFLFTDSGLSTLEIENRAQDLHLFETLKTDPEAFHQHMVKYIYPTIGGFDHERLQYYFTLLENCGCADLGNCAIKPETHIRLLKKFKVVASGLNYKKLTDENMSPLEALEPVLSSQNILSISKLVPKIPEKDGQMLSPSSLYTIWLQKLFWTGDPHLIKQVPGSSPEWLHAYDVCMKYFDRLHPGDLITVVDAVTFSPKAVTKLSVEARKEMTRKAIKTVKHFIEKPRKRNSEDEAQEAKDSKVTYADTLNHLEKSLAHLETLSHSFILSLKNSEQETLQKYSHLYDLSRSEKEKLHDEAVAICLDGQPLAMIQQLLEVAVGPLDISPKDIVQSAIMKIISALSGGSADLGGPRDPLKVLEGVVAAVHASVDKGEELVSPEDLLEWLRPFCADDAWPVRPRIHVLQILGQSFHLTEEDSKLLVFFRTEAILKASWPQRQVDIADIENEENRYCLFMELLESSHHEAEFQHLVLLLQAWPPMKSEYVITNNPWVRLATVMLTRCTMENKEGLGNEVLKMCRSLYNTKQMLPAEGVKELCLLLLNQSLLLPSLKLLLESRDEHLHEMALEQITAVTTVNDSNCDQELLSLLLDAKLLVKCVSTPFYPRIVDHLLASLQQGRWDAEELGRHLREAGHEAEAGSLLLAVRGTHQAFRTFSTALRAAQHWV
UniProt P56962: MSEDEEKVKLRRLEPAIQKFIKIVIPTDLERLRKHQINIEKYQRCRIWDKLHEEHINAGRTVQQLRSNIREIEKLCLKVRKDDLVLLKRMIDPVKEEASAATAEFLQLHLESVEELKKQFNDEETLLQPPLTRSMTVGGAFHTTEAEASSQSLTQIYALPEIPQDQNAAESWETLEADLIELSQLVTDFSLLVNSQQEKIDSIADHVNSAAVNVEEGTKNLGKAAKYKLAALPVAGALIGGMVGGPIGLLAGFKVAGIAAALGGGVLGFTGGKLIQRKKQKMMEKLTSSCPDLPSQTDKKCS

Holding throughout (experiment): affinity purification with mass spectrometry
The target of test [1] is T1, GFP-tagged human Ykt6 phospho-ablative mutant (S174A) (human) (UniProt O15498).
T1 sequence: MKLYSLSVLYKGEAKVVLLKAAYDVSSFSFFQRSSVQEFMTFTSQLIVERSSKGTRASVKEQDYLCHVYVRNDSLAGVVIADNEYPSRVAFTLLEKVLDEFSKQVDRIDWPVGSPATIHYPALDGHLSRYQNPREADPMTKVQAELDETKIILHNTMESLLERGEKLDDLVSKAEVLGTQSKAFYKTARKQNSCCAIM

For test [2], the target named is T2, GFP-tagged human Ykt6 phospho-mimetic mutant (S174D) (human) (UniProt O15498).
T2 sequence: T1 sequence with A174D

Test [3] addresses T3, GFP-tagged wild-type (WT) human Ykt6 (human) (UniProt O15498).
T3 sequence: T1 sequence with A174S

Positions count from the first letter of the chain named. No constants are given. Whether binding was seen depends on the method and setting. In cells and extracts the contact can be indirect. Here binding means that the protein was enriched with, or labelled near, the bait; the list need not be complete. For some assays here: A no says only that the protein was not detected with the bait. Sequences can lack the tags named with a protein.

On to “vesicle fusion ATPase NSF (from UniProt P46459 1-744) (enzyme)”, for which the binding entry in test [1] and in test [2] was “binds” throughout.
For NBAS (from UniProt A2RRP1 1-2371), the binding result in test [1], in test [2] and in test [3] was “binds” each time.
With Stx17 (from UniProt P56962 1-302), the binding result in test [1] is “binds”.

B1: Stx18 (protein, UniProt Q9P2W9 1-335)
chain: MAVDITLLFRASVKTVKTRNKALGVAVGGGVDGSRDELFRRSPRPKGDFSSRAREVISHIGKLRDFLLEHRKDYINAYSHTMSEYGRMTDTERDQIDQDAQIFMRTCSEAIQQLRTEAHKEIHSQQVKEHRTAVLDFIEDYLKRVCKLYSEQRAIRVKRVVDKKRLSKLEPEPNTKTRESTSSEKVSQSPSKDSEENPATEERPEKILAETQPELGTWGDGKGEDELSPEEIQMFEQENQRLIGEMNSLFDEVRQIEGRVVEISRLQEIFTEKVLQQEAEIDSIHQLVVGATENIKEGNEDIREAIKNNAGFRVWILFFLVMCSFSLLFLDWYDS
As for B1, the binding entry in test [1], in test [2] and in test [3] was “binds” throughout.

B2: Stx8 (protein, UniProt Q9UNK0 1-236)
chain: MAPDPWFSTYDSTCQIAQEIAEKIQQRNQYERKGEKAPKLTVTIRALLQNLKEKIALLKDLLLRAVSTHQITQLEGDRRQNLLDDLVTRERLLLASFKNEGAEPDLIRSSLMSEEAKRGAPNPWLFEEPEETRGLGFDEIRQQQQKIIQEQDAGLDALSSIISRQKQMGQEIGNELDEQNEIIDDLANLVENTDEKLRNETRRVNMVDRKSASCGMIMVILLLLVAIVVVAVWPTN
For the molecule B2, the binding result in test [2] and in test [3] was “binds” each time.

B3: VTI1B (protein, UniProt Q9UEU0 1-232)
chain: MASSAASSEHFEKLHEIFRGLHEDLQGVPERLLGTAGTEEKKKLIRDFDEKQQEANETLAEMEEELRYAPLSFRNPMMSKLRNYRKDLAKLHREVRSTPLTATPGGRGDMKYGIYAVENEHMNRLQSQRAMLLQGTESLNRATQSIERSHRIATETDQIGSEIIEELGEQRDQLERTKSRLVNTSENLSKSRKILRSMSRKVTTNKLLLSIIILLELAILGGLVYYKFFRSH
With B3, the binding entry in test [2] and in test [3] was “binds” in each case.

B4: SNAP47 (protein, UniProt Q5SQN1 1-464)
chain: MRAARRGLHCAGAERPRRRGRLWDSSGVPQRQKRPGPWRTQTQEQMSRDVCIHTWPCTYYLEPKRRWVTGQLSLTSLSLRFMTDSTGEILVSFPLSSIVEIKKEASHFIFSSITILEKGHAKHWFSSLRPSRNVVFSIIEHFWRELLLSQPGAVADASVPRTRGEELTGLMAGSQKRLEDTARVLHHQGQQLDSVMRGLDKMESDLEVADRLLTELESPAWWPFSSKLWKTPPETKPREDVSMTSCEPFGKEGILIKIPAVISHRTESHVKPGRLTVLVSGLEIHDSSSLLMHRFEREDVDDIKVHSPYEISIRQRFIGKPDMAYRLISAKMPEVIPILEVQFSKKMELLEDALVLRSARTSSPAEKSCSVWHAASGLMGRTLHREPPAGDQEGTALHLQTSLPALSEADTQELTQILRRMKGLALEAESELERQDEALDGVAAAVDRATLTIDKHNRRMKRLT
B4: the binding result in test [2] and in test [3] was “binds” throughout.

B5: GOSR2 (protein, UniProt O14653 1-212)
chain: MDPLFQQTHKQVHEIQSCMGRLETADKQSVHIVENEIQASIDQIFSRLERLEILSSKEPPNKRQNARLRVDQLKYDVQHLQTALRNFQHRRHAREQQERQREELLSRTFTTNDSDTTIPMDESLQFNSSLQKVHNGMDDLILDGHNILDGLRTQRLTLKGTQKKILDIANMLGLSNTVMRLIEKRAFQDKYFMIGGMLLTCVVMFLVVQYLT
Turning to B5, the binding entry in test [1], in test [2] and in test [3] was “binds” throughout.

B6: Snap-α (NAPA gene) (protein, UniProt P54920 1-295)
chain: MDNSGKEAEAMALLAEAERKVKNSQSFFSGLFGGSSKIEEACEIYARAANMFKMAKNWSAAGNAFCQAAQLHLQLQSKHDAATCFVDAGNAFKKADPQEAINCLMRAIEIYTDMGRFTIAAKHHISIAEIYETELVDIEKAIAHYEQSADYYKGEESNSSANKCLLKVAGYAALLEQYQKAIDIYEQVGTNAMDSPLLKYSAKDYFFKAALCHFCIDMLNAKLAVQKYEELFPAFSDSRECKLMKKLLEAHEEQNVDSYTESVKEYDSISRLDQWLTTMLLRIKKTIQGDEEDLR
Consider B6, for which the binding entry in test [1], in test [2] and in test [3] was “binds” each time.

B7: Beta Galactosidase GLB1 (enzyme, UniProt P16278 29-677)
chain: QRMFEIDYSRDSFLKDGQPFRYISGSIHYSRVPRFYWKDRLLKMKMAGLNAIQTYVPWNFHEPWPGQYQFSEDHDVEYFLRLAHELGLLVILRPGPYICAEWEMGGLPAWLLEKESILLRSSDPDYLAAVDKWLGVLLPKMKPLLYQNGGPVITVQVENEYGSYFACDFDYLRFLQKRFRHHLGDDVVLFTTDGAHKTFLKCGALQGLYTTVDFGTGSNITDAFLSQRKCEPKGPLINSEFYTGWLDHWGQPHSTIKTEAVASSLYDILARGASVNLYMFIGGTNFAYWNGANSPYAAQPTSYDYDAPLSEAGDLTEKYFALRNIIQKFEKVPEGPIPPSTPKFAYGKVTLEKLKTVGAALDILCPSGPIKSLYPLTFIQVKQHYGFVLYRTTLPQDCSNPAPLSSPLNGVHDRAYVAVDGIPQGVLERNNVITLNITGKAGATLDLLVENMGRVNYGAYINDFKGLVSNLTLSSNILTDWTIFPLDTEDAVRSHLGGWGHRDSGHHDEAWAHNSSNYTLPAFYMGNFSIPSGIPDLPQDTFIQFPGWTKGQVWINGFNLGRYWPARGPQLTLFVPQHILMTSAPNTITVLELEWAPCSSDDPELCAVTFVDRPVIGSSVTYDHPSKPVEKRLMPPPPQKNKDSWLDHV
With B7, the binding entry in test [2] is “no binding”; in test [3], “binds”.
